The source of these data is publication doi:10.1101/2022.03.21.485216.

Sequences of proteins named here, by UniProt entry; tags and fusion partners are left off. A change or cut given only in a name is not applied to a line headed by its entry.
UniProt Q92616: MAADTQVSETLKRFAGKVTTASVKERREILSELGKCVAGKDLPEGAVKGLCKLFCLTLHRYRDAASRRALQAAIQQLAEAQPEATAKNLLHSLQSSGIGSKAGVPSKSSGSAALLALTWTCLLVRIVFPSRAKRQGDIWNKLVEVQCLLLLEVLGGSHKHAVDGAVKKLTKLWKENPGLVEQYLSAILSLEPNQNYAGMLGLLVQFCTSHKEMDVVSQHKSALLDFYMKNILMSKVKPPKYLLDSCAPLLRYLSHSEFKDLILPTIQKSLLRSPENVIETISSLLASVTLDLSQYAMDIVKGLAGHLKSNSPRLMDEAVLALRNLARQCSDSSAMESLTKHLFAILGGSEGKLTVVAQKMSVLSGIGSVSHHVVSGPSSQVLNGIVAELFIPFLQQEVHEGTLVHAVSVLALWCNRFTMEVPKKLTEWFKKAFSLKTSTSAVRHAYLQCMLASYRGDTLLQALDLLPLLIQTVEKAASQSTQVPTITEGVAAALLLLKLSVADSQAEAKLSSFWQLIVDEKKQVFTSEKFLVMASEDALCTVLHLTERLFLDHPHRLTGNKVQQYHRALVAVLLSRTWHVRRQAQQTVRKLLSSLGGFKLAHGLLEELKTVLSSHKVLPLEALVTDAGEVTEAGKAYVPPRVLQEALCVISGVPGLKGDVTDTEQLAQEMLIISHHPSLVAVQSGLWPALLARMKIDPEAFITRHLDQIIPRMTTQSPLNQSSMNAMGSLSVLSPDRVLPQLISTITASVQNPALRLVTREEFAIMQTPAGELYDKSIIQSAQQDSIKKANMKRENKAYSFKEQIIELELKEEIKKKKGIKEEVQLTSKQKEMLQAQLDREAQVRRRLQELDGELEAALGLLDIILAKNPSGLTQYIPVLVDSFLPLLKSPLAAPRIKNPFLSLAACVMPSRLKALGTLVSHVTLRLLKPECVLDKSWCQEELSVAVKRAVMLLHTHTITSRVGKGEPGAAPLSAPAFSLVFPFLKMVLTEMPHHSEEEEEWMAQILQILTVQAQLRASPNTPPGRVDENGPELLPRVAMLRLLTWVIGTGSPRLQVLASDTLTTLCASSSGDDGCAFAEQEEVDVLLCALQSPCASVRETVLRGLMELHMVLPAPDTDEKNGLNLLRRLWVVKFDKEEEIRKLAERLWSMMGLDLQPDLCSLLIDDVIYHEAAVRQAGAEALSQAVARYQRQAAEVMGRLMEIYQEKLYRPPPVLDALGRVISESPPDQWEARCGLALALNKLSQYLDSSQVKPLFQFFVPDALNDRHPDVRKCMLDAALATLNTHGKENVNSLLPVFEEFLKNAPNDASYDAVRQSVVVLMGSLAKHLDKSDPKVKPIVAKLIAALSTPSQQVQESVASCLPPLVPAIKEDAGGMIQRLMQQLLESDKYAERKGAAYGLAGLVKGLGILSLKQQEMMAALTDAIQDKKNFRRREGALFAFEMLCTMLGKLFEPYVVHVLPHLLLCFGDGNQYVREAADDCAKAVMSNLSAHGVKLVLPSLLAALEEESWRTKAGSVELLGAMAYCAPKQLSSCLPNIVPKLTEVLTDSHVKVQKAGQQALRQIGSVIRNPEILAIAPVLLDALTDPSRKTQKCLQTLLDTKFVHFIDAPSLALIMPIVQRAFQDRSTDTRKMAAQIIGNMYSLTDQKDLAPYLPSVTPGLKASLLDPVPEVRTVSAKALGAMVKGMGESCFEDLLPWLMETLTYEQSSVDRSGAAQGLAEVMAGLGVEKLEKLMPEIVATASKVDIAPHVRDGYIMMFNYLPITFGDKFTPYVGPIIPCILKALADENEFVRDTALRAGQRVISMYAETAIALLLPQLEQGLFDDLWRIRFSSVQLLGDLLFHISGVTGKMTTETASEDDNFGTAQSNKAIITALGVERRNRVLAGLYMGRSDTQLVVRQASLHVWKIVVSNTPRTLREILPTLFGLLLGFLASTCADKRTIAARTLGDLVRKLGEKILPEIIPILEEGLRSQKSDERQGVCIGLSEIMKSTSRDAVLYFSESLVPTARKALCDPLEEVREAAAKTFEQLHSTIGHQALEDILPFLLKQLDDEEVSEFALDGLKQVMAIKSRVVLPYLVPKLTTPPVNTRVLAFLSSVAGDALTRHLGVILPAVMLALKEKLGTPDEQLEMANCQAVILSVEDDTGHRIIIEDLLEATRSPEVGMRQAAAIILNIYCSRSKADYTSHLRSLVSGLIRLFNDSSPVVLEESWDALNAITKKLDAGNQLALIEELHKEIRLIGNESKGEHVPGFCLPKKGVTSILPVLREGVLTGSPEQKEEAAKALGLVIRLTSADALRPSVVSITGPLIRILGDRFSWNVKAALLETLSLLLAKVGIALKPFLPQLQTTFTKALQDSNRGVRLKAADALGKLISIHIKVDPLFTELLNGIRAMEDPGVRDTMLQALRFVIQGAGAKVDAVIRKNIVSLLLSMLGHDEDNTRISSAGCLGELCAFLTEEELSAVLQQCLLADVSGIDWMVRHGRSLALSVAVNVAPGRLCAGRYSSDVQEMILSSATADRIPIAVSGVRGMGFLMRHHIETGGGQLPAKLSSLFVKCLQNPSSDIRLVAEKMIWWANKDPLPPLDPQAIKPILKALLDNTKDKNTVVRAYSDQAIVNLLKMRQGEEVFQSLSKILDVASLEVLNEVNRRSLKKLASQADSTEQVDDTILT
UniProt Q9P2K8: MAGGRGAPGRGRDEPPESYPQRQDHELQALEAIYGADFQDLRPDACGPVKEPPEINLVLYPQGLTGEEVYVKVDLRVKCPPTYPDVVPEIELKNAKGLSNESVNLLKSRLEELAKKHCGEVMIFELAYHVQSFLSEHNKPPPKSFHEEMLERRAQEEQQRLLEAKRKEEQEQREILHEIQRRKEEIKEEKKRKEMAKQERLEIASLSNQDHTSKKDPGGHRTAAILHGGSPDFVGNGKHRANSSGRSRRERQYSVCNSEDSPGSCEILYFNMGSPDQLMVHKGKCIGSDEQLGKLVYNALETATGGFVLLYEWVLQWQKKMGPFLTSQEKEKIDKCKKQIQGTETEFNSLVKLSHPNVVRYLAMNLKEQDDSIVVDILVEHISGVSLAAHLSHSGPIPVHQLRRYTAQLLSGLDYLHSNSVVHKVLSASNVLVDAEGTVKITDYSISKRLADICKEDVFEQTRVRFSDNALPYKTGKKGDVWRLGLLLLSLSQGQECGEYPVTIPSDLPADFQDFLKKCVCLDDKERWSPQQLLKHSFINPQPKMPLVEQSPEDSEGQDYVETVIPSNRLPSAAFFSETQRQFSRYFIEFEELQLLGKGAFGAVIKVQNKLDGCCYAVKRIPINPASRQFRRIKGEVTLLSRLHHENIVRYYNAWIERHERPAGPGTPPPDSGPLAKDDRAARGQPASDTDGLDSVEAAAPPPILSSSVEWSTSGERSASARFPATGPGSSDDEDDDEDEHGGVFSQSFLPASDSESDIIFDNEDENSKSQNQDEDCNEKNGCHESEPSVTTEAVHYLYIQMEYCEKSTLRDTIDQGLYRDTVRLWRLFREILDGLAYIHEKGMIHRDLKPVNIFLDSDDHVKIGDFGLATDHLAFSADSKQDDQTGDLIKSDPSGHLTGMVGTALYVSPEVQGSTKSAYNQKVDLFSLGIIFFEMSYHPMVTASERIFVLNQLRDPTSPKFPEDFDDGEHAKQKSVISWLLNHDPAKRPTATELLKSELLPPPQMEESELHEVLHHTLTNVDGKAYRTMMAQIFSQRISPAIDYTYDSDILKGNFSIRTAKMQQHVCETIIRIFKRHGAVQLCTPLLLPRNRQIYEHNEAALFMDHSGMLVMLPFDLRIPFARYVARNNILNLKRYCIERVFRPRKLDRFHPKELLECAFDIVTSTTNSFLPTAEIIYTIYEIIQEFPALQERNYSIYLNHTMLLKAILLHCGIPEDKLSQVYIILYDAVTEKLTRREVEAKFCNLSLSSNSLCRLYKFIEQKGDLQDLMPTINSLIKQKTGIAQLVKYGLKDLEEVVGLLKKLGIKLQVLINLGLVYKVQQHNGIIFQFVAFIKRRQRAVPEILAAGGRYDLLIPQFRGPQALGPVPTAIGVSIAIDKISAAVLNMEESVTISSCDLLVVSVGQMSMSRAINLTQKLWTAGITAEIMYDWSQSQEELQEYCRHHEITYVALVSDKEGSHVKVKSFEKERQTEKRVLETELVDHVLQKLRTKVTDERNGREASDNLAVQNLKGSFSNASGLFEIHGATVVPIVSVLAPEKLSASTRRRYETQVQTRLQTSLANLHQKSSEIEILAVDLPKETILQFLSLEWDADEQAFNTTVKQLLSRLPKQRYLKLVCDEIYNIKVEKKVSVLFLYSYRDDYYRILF

Where two headings read alike, the source gives them in different places. Results are given in words; binding and its absence hold for the method and conditions named. Binding seen in cells or lysates may run through a third protein. Some binding calls cover weakened binding; strength is not graded here. For some assays here: Sequences can lack the tags named with a protein.

Common to all, as to test: co-IP
In experiment [1] the target is GCN1-3xFlag (human) (UniProt Q92616).
Experiment [2] has as its target R2312A GCN1-3xFlag (human) (UniProt Q92616).
Experiment [3] addresses T1, 3xFlag-tagged RNF14 (UniProt Q9UBS8).
T1 sequence: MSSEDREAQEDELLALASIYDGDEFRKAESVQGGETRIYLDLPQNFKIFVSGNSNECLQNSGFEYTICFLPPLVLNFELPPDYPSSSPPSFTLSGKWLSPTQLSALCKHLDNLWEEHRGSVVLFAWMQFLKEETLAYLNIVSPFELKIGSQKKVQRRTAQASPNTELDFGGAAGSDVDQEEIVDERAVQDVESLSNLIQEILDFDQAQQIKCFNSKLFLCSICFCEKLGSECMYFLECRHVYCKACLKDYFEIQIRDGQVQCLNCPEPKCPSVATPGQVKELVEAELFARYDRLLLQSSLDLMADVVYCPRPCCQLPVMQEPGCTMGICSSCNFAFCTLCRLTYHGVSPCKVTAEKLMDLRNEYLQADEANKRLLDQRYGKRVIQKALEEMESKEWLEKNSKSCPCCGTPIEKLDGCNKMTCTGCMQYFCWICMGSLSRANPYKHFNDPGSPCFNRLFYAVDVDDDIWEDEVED

Experiment [4] deals with GCN1-3xFlag (human) (UniProt Q92616). This is another data set of the same source.

For the molecule “GCN2 (from UniProt Q9P2K8 1-1649) (enzyme)”, the binding result in experiment [1] and in experiment [2] was “binds” throughout. With “higher-molecular weight, likely multi-ubiquitinated form of GCN1 (from UniProt Q92616 1-2671)”, the binding entry in experiment [3] is “binds”. Same read-out and setting: the same measure for “endogenous GCN1 (from UniProt Q92616 1-2671)”: “binds”.

B1: endogenous RNF14 (enzyme, UniProt Q9UBS8 1-474)
chain: T1 sequence
B1: the binding result in experiment [4] is on record as “binds”.
